Test results published in patent EP0625164 (dated 1993).
For part of these data: Some peptides are written in HELM: one residue between dots, names in brackets for other building blocks, links after the first $.

Columns and labels:
[1] = general procedure: Boc solid-phase peptide synthesis; oxime resin; HBTU / N-methylmorpholine; settings: whole synthesis, scale 1.05 mmol, TFA salt
[2] = general procedure: Boc solid-phase peptide synthesis; oxime resin (substitution level = 0.96 mmol/g); HBTU / N-methylmorpholine; settings: for isolated yield: overall; for cyclisation yield: cyclisation step
[3] = late stage modification step, acetate salt
[4] = purification step, TFA salt, run 1
[5] = whole synthesis, TFA salt, run 1
[6] = late stage modification step, TFA salt
[7] = whole synthesis, scale 0.611 mmol, TFA salt
[8] = whole synthesis, scale 0.115 mmol, TFA salt
[9] = late stage modification step, fluoride salt
[10] = whole synthesis, scale 0.43 mmol, TFA salt
[11] = whole synthesis, scale 0.586 mmol, TFA salt
[12] = whole synthesis, scale 0.596 mmol, TFA salt
[13] = whole synthesis, scale 0.336 mmol, TFA salt
[14] = whole synthesis, scale 0.244 mmol, TFA salt
[15] = whole synthesis, scale 0.498 mmol, TFA salt
[16] = whole synthesis, scale 0.101 mmol, TFA salt

cyclo-(D-Val-NMeArg-Gly-Asp-iodo-Mamb) showed a crude mass [1] of 460 mg, a crude yield [1] of 46.8% and a step yield [2, 3] of 95.6%. The step yield ([2]; purification step, TFA salt) was 39.7% recovery and the isolated yield ([2]; whole synthesis, TFA salt) was “overall yield 16.6%”.

“Boc-D-Val-NMeArg(Tos)-Gly-Asp (OcHex)-MAMB-Ox” showed a step yield ([2]; coupling step, TFA salt) of 86%.

With “cyclo-(D-Val-NMeArg-Gly-Asp-4-aminomethylbenzoic acid) [88]” the step yield [2, 4] was 13.4% and the isolated yield [2, 5] was 7.3%.

In the case of “cyclo-(D-Val-NMeArg-Gly-Asp-3-aminomethyl-6-methylbenzoic acid)”, the step yield [2, 6] is reported as 27%.

“PEPTIDE1{[dVal].[NMeArg].[Gly].[dAsp].[Mamb]}$PEPTIDE1,PEPTIDE1,5:R2-1:R1$$$V2.0” gave a step yield ([2]; purification step, TFA salt) of 44.4%, an isolated yield ([2]; whole synthesis, TFA salt) of 20.7% and a crude mass [2, 7] of 257 mg. It also gave a crude yield [2, 7] of 51.9%.

Work on “cyclo-(D-Val-NMeArg-Gly-Asp-3-aminomethyl-6-chlorobenzoic acid)” yielded a step yield [2, 6] of 54%.

For “cyclo-(D-Val-NMeArg-Gly-Asp-3-aminomethyl-6-iodobenzoic acid)”, the step yield [2, 6] was 46%.

For “PEPTIDE1{[dLeu].[NMeArg].[Gly].[Asp].[Mamb]}$PEPTIDE1,PEPTIDE1,5:R2-1:R1$$$V2.0”, the step yield [2, 3] was 63%, the step yield ([2]; purification step, TFA salt) was 29% and the isolated yield ([2]; whole synthesis, TFA salt) was 16.5%. It also gave a crude mass [2, 8] of 92.4 mg and a crude yield [2, 8] of 98%.

In the case of “PEPTIDE1{[dVal].[NMeArg].[Gly].[Asp].[NMeMamb]}$PEPTIDE1,PEPTIDE1,5:R2-1:R1$$$V2.0”, the step yield [2, 9] is reported as 93.5%, the step yield ([2]; purification step, TFA salt) is reported as 34.2% and the isolated yield ([2]; whole synthesis, TFA salt) is reported as 29.9%. It also gave a crude mass ([2]; whole synthesis, scale 0.456 mmol, TFA salt) of 406 mg.

For “PEPTIDE1{[dPro].[NMeArg].[Gly].[Asp].[Mamb]}$PEPTIDE1,PEPTIDE1,5:R2-1:R1$$$V2.0”, the step yield [2, 3] was 93.3%, the step yield ([2]; purification step, TFA salt) was 6.4% and the isolated yield ([2]; whole synthesis, TFA salt) was 3.3%. For the same substance, the crude mass [2, 10] was 211 mg and the crude yield [2, 10] was 60.8%.

Work on “PEPTIDE1{[dV].[NMeArg].G.D.[2Amb]}$PEPTIDE1,PEPTIDE1,1:R1-5:R2$$$V2.0” yielded a step yield [2, 6] of 12%.

With “PEPTIDE1{[dVal].[NMeArg].[bAla].[Asp].[Mamb]}$PEPTIDE1,PEPTIDE1,5:R2-1:R1$$$V2.0” the step yield [2, 9] was 93.2%, the step yield ([2]; purification step, TFA salt) was 43.6% and the isolated yield ([2]; whole synthesis, TFA salt) was 16.5%. For the same substance, the crude mass [2, 11] was 227 mg and the crude yield [2, 11] was 46.9%.

cyclo-(D-Val-NMeAmf-Gly-Asp-Mamb) gave a step yield ([2]; purification step, TFA salt) of 8.1%, an isolated yield ([2]; whole synthesis, TFA salt) of 4.1% and a crude mass [2, 11] of 189 mg. It also gave a crude yield [2, 11] of 39.9%.

For “cyclo(·D-Val-NmeArg(Tos) -Gly-Asp (OcHex)-MAMB)”, the cyclisation yield ([2]; TFA salt) was 86%.

“PEPTIDE1{[dV].[NMeArg].G.D.[2AmPhAc]}$PEPTIDE1,PEPTIDE1,1:R1-5:R2$$$V2.0” gave a step yield ([2]; coupling step, TFA salt) of 95%, a cyclisation yield ([2]; TFA salt) of 68% and a step yield [2, 6] of 75%.

For cyclo-(D-Abu-NMeArg-Gly-Asp-iodo-Mamb), the step yield ([2]; purification step, TFA salt) was 28.7%, the isolated yield ([2]; whole synthesis, TFA salt) was 30.2% and the crude mass ([2]; whole synthesis, scale 3.53 mmol, TFA salt) was 4070 mg.

For “PEPTIDE1{[dLys].[NMeArg].[Gly].[Asp].[Mamb]}$PEPTIDE1,PEPTIDE1,5:R2-1:R1$$$V2.0”, the step yield ([2]; late stage modification step, difluoride salt) was 79.1%, the step yield ([2]; purification step, TFA salt) was 33.6% and the isolated yield ([2]; whole synthesis, TFA salt) was 12.1%. For the same substance, the crude mass [2, 11] was 349 mg and the crude yield [2, 11] was 58.9%.

For “PEPTIDE1{[dVal].[dNMeArg].[Gly].[Asp].[Mamb]}$PEPTIDE1,PEPTIDE1,5:R2-1:R1$$$V2.0”, the step yield ([2]; purification step, TFA salt) was 14.8%, the isolated yield ([2]; whole synthesis, TFA salt) was 5.3% and the crude mass [2, 12] was 186 mg. For the same substance, the crude yield [2, 12] was 38.6%.

With “PEPTIDE1{[Gly].[NMeArg].[Gly].[Asp].[Mamb]}$PEPTIDE1,PEPTIDE1,5:R2-1:R1$$$V2.0” the step yield ([2]; purification step, TFA salt) was 21% recovery, the isolated yield ([2]; whole synthesis, TFA salt) was “overall yield 16.3%” and the crude mass [2, 13] was 218 mg. The crude yield [2, 13] was 84%.

For “PEPTIDE1{[dNle].[NMeArg].[Gly].[Asp].[Mamb]}$PEPTIDE1,PEPTIDE1,5:R2-1:R1$$$V2.0”, the step yield [2, 9] was 95.4%, the step yield ([2]; purification step, TFA salt) was 44% and the isolated yield ([2]; whole synthesis, TFA salt) was 22.9%. For the same substance, the crude mass [2, 11] was 305 mg and the crude yield [2, 11] was 63.3%.

Work on “cycle-(D-Val-NMeArg-Gly-Asp-3-aminomethyl-4-chlorobenzoic acid)” yielded a step yield [2, 6] of 39%.

With “PEPTIDE1{[dAla].[NMeArg].[Gly].[Asp].[Mamb]}$PEPTIDE1,PEPTIDE1,5:R2-1:R1$$$V2.0” the difficulty met ([2]; whole synthesis, TFA salt) was “Recoupling of the Boc-N-MeArg(Tos) residue was found to be necessary”, the crude mass [2, 14] was 117 mg and the crude yield [2, 14] was 61%.

Work on “PEPTIDE1{[D-Abu].[di-NMeOrn].G.D.[Mamb]}$PEPTIDE1,PEPTIDE1,1:R1-5:R2$$$V2.0” yielded a step yield [2, 9] of 86%, a step yield ([2]; purification step, TFA salt) of 49.3% and an isolated yield ([2]; whole synthesis, TFA salt) of 14.2%. The crude mass [2, 15] was 150 mg and the crude yield [2, 15] was 39.3%.

With “PEPTIDE1{[dPhe].[NMeArg].[Gly].[Asp].[Mamb]}$PEPTIDE1,PEPTIDE1,5:R2-1:R1$$$V2.0” the step yield ([2]; purification step, TFA salt) was 35%, the isolated yield ([2]; whole synthesis, TFA salt) was 8.7% and the crude mass [2, 7] was 140 mg. It also gave a crude yield [2, 7] of 26.7%.

Substance “PEPTIDE1{[dVal].[NMeArg].[Gly].[NMeAsp].[Mamb]}$PEPTIDE1,PEPTIDE1,5:R2-1:R1$$$V2.0” has a step yield [2, 9] of 96.4%, a step yield ([2]; purification step, TFA salt) of 28.2% and an isolated yield ([2]; whole synthesis, TFA salt) of 10.9%. The crude mass [2, 7] was 232 mg and the crude yield [2, 7] was 46.1%.

In the case of “TFA·D-Val-NmeArg(Tos)-Gly-Asp (OcHex) -MAMB-Ox”, the step yield [2, 6] is reported as 98%.

For “PEPTIDE1{[NMeGly].[NMeArg].[Gly].[Asp].[Mamb]}$PEPTIDE1,PEPTIDE1,5:R2-1:R1$$$V2.0”, the step yield [2, 3] was 97%, the step yield ([2]; purification step, TFA salt) was 14.7% and the isolated yield ([2]; whole synthesis, TFA salt) was 7.9%. The crude mass [2, 10] was 205 mg and the crude yield [2, 10] was 60%.

“PEPTIDE1{[dI].[NMeArg].G.D.[Mamb]}$PEPTIDE1,PEPTIDE1,1:R1-5:R2$$$V2.0” showed a step yield [2, 9] of 90%, a step yield ([2]; purification step, TFA salt) of 22.5% and an isolated yield ([2]; whole synthesis, TFA salt) of 12.1%. It also gave a crude mass [2, 7] of 349 mg and a crude yield [2, 7] of 69.2%.

“cyclo-(D-Val-NMeArg-Gly-Asp-4-aminomethylbenzoic acid) [87]” showed a step yield [2, 4] of 17.1% and an isolated yield [2, 5] of 9.3%.

Substance “PEPTIDE1{[bAla].[NMeArg].[Gly].[Asp].[Mamb]}$PEPTIDE1,PEPTIDE1,5:R2-1:R1$$$V2.0” has a step yield ([2]; purification step, TFA salt) of 53.2%, an isolated yield ([2]; whole synthesis, TFA salt) of 32.5% and a crude mass [2, 11] of 264 mg.

For “PEPTIDE1{[dAbu].[NMeArg].[Gly].[Asp].[Mamb]}$PEPTIDE1,PEPTIDE1,5:R2-1:R1$$$V2.0”, the step yield [2, 6] was 68.7%, the step yield ([2]; purification step, TFA salt) was 31% recovery and the isolated yield ([2]; whole synthesis, TFA salt) was “overall yield 12.4%”. The crude mass [2, 16] was 51 mg and the crude yield [2, 16] was 63%.

With “PEPTIDE1{[dVal].[NMeArg].[Gly].[Asp].[Mamb]}$PEPTIDE1,PEPTIDE1,5:R2-1:R1$$$V2.0” the step yield (peptide synthesis; [3]) was 82%, the step yield (peptide synthesis; purification step, TFA salt) was “approximately 40%” and the step yield [2, 6] was 70%. For the same substance, the step yield ([2]; purification step, TFA salt) was 24% recovery, the isolated yield ([2]; whole synthesis, TFA salt) was “overall yield 9.4%” and the crude mass [2, 16] was 49 mg. It also gave a crude yield [2, 16] of 60%.

For “PEPTIDE1{[Pro].[NMeArg].[Gly].[Asp].[Mamb]}$PEPTIDE1,PEPTIDE1,5:R2-1:R1$$$V2.0”, the step yield [2, 3] was 79%, the step yield ([2]; purification step, TFA salt) was 5.8% and the isolated yield ([2]; whole synthesis, TFA salt) was 2.1%. It also gave a crude mass [2, 10] of 170 mg and a crude yield [2, 10] of 48.8%.

For “PEPTIDE1{[dV].[NMeArg].G.D.[3APhAc]}$PEPTIDE1,PEPTIDE1,1:R1-5:R2$$$V2.0”, the step yield [2, 6] was 50%.

With “PEPTIDE1{[dTyr].[NMeArg].[Gly].[Asp].[Mamb]}$PEPTIDE1,PEPTIDE1,5:R2-1:R1$$$V2.0” the step yield ([2]; purification step, TFA salt) was 11.3%, the isolated yield ([2]; whole synthesis, TFA salt) was 10.8% and the crude mass ([2]; whole synthesis, scale 0.313 mmol, TFA salt) was 342 mg.

“cyclo-(D-val-NMeArg-Gly-Asp-3-aminomethyl-6-methoxybenzoic acid)” gave a step yield [2, 6] of 63%.

For “cyclo-(D-Val-NMeArg-Gly-Asp-3-aminomethyl-4-methylbenzoic acid)”, the step yield [2, 6] was 42%.

In the case of “cyclo-(D-Val-NMeArg-Gly-Asp-3-aminomethyl-4-methoxybenzoic acid)”, the step yield [2, 6] is reported as 32%.

Work on “PEPTIDE1{[dPhg].[NMeArg].[Gly].[Asp].[Mamb]}$PEPTIDE1,PEPTIDE1,5:R2-1:R1$$$V2.0” yielded a step yield [2, 9] of 98.9%, a step yield ([2]; purification step, TFA salt) of 24.2% and an isolated yield ([2]; whole synthesis, TFA salt) of 11.9%. For the same substance, the crude mass [2, 7] was 296 mg and the crude yield [2, 7] was 57.4%.

“cyclo-(D-Val-NMeArg-Gly-Asp-aminomethylnaphthoic acid)” gave a step yield ([2]; purification step, TFA salt) of 12.1%, an isolated yield ([2]; whole synthesis, TFA salt) of 7.8% and a crude yield ([2]; whole synthesis, scale 0.737 mmol, TFA salt) of 73.1%.

With cyclo-(D-Val-NMeArg-L-Ala-Asp-Mamb) the step yield [2, 9] was 83%, the step yield ([2]; purification step, TFA salt) was 19.9% and the isolated yield ([2]; whole synthesis, TFA salt) was 10.6%. For the same substance, the crude mass [2, 7] was 375 mg and the crude yield [2, 7] was 74.6%.
